Test results from publication PMC5473929.
These are yes or no findings as the source states them, for the method shown. Binding seen in cells or lysates may run through a third protein. Some binding calls cover weakened binding; strength is not graded here.

By UniProt entry, the sequences of proteins in these tests, tags left out.
UniProt P85037: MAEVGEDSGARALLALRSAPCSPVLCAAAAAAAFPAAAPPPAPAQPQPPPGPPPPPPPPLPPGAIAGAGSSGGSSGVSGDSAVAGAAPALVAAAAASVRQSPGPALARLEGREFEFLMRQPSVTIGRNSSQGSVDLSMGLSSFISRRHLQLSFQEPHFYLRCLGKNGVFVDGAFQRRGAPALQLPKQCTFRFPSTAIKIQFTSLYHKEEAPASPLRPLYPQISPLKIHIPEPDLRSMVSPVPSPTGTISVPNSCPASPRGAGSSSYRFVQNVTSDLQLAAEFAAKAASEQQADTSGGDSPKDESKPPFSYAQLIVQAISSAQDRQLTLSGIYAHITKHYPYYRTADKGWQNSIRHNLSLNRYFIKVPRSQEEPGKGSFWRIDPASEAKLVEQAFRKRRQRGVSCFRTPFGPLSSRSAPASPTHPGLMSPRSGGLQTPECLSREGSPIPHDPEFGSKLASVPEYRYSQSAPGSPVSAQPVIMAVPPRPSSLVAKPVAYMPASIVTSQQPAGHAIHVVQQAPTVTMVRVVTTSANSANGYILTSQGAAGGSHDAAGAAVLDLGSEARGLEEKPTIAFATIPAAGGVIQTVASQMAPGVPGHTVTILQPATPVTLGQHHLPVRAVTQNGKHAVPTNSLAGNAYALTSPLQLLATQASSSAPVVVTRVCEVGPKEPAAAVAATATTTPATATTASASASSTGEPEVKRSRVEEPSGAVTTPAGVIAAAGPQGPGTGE

Biological target: FOXK1 (Forkhead box k1), endogenous (human (endogenous in HEK 293T, LoVo, SW1116)) (UniProt P85037)
Test: co-IP; whole cell lysates of SW1116 and LoVo cells, endogenous proteins; immunoprecipitation with anti-FOXK1 antibody (normal rabbit IgG as control), protein A-agarose, 4 °C; western blot with anti-RUFY3

B1: endogenous RUFY3 (protein, UniProt Q7L099 1-469)
chain: MSALTPPTDMPTPTTDKITQAAMETIYLCKFRVSMDGEWLCLRELDDISLTPDPEPTHEDPNYLMANERMNLMNMAKLSIKGLIESALNLGRTLDSDYAPLQQFFVVMEHCLKHGLKAKKTFLGQNKSFWGPLELVEKLVPEAAEITASVKDLPGLKTPVGRGRAWLRLALMQKKLSEYMKALINKKELLSEFYEPNALMMEEEGAIIAGLLVGLNVIDANFCMKGEDLDSQVGVIDFSMYLKDGNSSKGTEGDGQITAILDQKNYVEELNRHLNATVNNLQAKVDALEKSNTKLTEELAVANNRIITLQEEMERVKEESSYILESNRKGPKQDRTAEGQALSEARKHLKEETQLRLDVEKELEMQISMRQEMELAMKMLEKDVCEKQDALVSLRQQLDDLRALKHELAFKLQSSDLGVKQKSELNSRLEEKTNQMAATIKQLEQSEKDLVKQAKTLNSAANKLIPKHH
binding: binds
